# In the supplement of paper PMC12889115:
# Some of the results follow. Values are raw readings; no control value is given beside them.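 First-pass screen: polymyxin B was added at a level that permeabilizes the Salmonella outer membrane while sparing the inner membrane. DMSO wells, with and without polymyxin B, defined maximum growth. Because plates differed from one another, each plate's data were ranked separately and the compounds with the lowest OD600 were carried forward as hits.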
# System: Salmonella enterica serovar Typhimurium SL1344
# Test: bacterial growth OD600 after 18 h with compound and polymyxin B; higher = more bacterial growth (less inhibition)
# Details: 50 µM, Mueller-Hinton broth
Structure (SMILES),bacterial growth OD600 (polymyxin B 1 µg/mL),bacterial growth OD600 (polymyxin B 0.75 µg/mL)
COc1ccc(C(=O)Nc2ccnn2C2CCN(C(=O)C3CCCC3)CC2)cc1,0.816,
COc1cccc(-c2ccc(NC(=O)C3CCCN(C(=O)c4ccncc4)C3)cc2)c1 (stereo not given),,0.408
CCN1CCC(Oc2cc(OC)ccc2C(=O)N2CCCC2)CC1,1,
Cc1nc(N2CCC(C(=O)N3CCCCC3c3nccn3C)CC2)nc2ccc(C(C)C)cc12 (stereo not given),,0.034
Cc1c(CC(=O)NCc2ccccn2)c2c(n1CC1CCCO1)CCCC2=O (stereo not given),,0.853
Cc1cc(C)c(CN2CC[C@@H](N3CCC(O)CC3)[C@H](O)C2)c(-n2cccn2)c1,0.951,
O=C(NCC1(c2ccccc2)CCOCC1)c1cc(COc2ccccc2)[nH]n1,0.902,
Cc1ncc(CNC2CC(=O)N(CCCc3ccccc3)C2)n1C (stereo not given),0.991,
Cc1occc1C(=O)N1CCC(Oc2cccc(C(=O)NCc3ccccn3)c2)CC1,,0.91
c1ccc(NC2CCCN(C3C4CC5CC(C4)CC3C5)C2)cc1 (stereo not given),0.934,
COc1cccc(C(=O)C2CCCN(Cc3ccc(C#CC(C)(C)O)s3)C2)c1 (stereo not given),1.02,
CN1CCC(C(=O)NC2CCCc3nc(-c4cccnc4)ncc32)CC1 (stereo not given),0.953,
COC(=O)CCC(=O)N1CCC(CCC(=O)NCc2cccnc2)CC1,0.842,
O=C(Cn1cccn1)N1CCCC(CCc2ccc(F)cc2F)C1 (stereo not given),,0.737
O=C(Nc1ccnn1C1CCN(Cc2c[nH]nc2-c2ccccc2)CC1)c1ccccc1,1.07,
CCN1CC(CN(C)c2nc3nonc3nc2NCc2cccs2)CC1=O (stereo not given),,0.809
O=C(NCC1CCCN(C(=O)CCC(F)(F)F)C1)c1cccc2ccccc12 (stereo not given),0.776,
CCOC(=O)C1(Cc2cccc(F)c2)CCN(C(=O)c2cccnc2)CC1,0.826,
O=C(NCC1Cc2cc(-c3ccsc3)cc(Cl)c2O1)[C@H]1C[C@@H]2C=C[C@H]1C2 (stereo not given in full),,0.563
CC(C)Cc1nc2cc(NS(=O)(=O)N(C)C)cc(C(=O)N3CCCC(c4ccccc4)C3)c2n1C (stereo not given),,0.008

# Looked up one by one from the list above:
Structure (SMILES),bacterial growth OD600 (polymyxin B 1 µg/mL),bacterial growth OD600 (polymyxin B 0.75 µg/mL)
CN1CCC(C(=O)NC2CCCc3nc(-c4cccnc4)ncc32)CC1 (stereo not given),0.953,
COc1cccc(C(=O)C2CCCN(Cc3ccc(C#CC(C)(C)O)s3)C2)c1 (stereo not given),1.02,
